Results reported in article doi:10.1101/2021.09.06.459192.
These are yes or no findings as the source states them, for the method shown. In cells and extracts the contact can be indirect. Some results given as binding are weak or reduced against the parent protein; the word gives no strength.

By UniProt entry, the sequences of proteins in these tests, tags left out.
UniProt P42945: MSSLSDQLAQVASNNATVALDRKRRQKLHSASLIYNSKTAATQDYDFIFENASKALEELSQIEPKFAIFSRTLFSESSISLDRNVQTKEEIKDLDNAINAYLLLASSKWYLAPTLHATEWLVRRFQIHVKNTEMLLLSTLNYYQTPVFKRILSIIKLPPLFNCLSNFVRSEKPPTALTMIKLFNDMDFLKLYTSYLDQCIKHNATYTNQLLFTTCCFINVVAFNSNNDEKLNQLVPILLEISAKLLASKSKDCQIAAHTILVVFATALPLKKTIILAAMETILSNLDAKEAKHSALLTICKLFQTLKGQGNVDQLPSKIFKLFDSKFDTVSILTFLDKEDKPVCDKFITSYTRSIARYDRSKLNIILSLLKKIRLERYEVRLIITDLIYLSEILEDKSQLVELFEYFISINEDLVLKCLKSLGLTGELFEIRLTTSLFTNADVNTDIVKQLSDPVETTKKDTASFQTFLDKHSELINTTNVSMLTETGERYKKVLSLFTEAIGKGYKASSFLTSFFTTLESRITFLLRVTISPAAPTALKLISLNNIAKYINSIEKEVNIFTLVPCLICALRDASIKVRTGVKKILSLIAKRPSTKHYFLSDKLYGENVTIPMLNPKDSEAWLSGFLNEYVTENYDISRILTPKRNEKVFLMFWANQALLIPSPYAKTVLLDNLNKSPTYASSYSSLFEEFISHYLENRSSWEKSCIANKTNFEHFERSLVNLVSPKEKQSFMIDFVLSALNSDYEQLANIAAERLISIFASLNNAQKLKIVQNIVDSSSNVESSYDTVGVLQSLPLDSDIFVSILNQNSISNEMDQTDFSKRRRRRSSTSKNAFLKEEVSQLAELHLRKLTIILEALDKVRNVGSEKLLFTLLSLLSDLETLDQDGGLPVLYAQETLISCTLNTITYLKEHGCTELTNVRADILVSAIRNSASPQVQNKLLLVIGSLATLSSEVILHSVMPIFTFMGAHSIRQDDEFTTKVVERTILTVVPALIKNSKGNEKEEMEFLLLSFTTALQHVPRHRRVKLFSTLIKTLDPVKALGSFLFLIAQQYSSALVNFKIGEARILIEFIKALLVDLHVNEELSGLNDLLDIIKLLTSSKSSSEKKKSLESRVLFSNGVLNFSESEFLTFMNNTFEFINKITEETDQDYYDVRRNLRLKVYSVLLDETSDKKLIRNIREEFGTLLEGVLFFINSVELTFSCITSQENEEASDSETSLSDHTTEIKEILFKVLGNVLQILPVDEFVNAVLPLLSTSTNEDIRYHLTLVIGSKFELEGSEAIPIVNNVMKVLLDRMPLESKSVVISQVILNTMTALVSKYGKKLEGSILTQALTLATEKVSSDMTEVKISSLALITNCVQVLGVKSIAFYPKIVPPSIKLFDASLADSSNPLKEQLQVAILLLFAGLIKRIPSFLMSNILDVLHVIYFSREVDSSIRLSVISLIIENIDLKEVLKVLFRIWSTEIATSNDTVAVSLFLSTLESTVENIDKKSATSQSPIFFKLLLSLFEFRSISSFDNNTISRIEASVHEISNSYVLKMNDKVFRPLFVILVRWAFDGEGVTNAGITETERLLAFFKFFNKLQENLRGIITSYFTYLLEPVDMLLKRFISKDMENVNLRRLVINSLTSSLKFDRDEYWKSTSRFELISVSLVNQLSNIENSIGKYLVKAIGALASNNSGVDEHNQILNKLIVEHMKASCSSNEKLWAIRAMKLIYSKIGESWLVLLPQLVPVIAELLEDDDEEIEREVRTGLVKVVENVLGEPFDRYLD

B1: Enp1 (protein, UniProt P38333 1-483)
chain: MARASSTKARKQRHDPLLKDLDAAQGTLKKINKKKLAQNDAANHDAANEEDGYIDSKASRKILQLAKEQQDEIEGEELAESERNKQFEARFTTMSYDDEDEDEDEDEEAFGEDISDFEPEGDYKEEEEIVEIDEEDAAMFEQYFKKSDDFNSLSGSYNLADKIMASIREKESQVEDMQDDEPLANEQNTSRGNISSGLKSGEGVALPEKVIKAYTTVGSILKTWTHGKLPKLFKVIPSLRNWQDVIYVTNPEEWSPHVVYEATKLFVSNLTAKESQKFINLILLERFRDNIETSEDHSLNYHIYRAVKKSLYKPSAFFKGFLFPLVETGCNVREATIAGSVLAKVSVPALHSSAALSYLLRLPFSPPTTVFIKILLDKKYALPYQTVDDCVYYFMRFRILDDGSNGEDATRVLPVIWHKAFLTFAQRYKNDITQDQRDFLLETVRQRGHKDIGPEIRRELLAGASREFVDPQEANDDLMIDVN
B2: Bms1 (protein, UniProt Q08965 1-1183)
chain: MEQSNKQHRKAKEKNTAKKKLHTQGHNAKAFAVAAPGKMARTMQRSSDVNERKLHVPMVDRTPEDDPPPFIVAVVGPPGTGKTTLIRSLVRRMTKSTLNDIQGPITVVSGKHRRLTFLECPADDLNAMIDIAKIADLVLLLIDGNFGFEMETMEFLNIAQHHGMPRVLGVATHLDLFKSQSTLRASKKRLKHRFWTEVYQGAKLFYLSGVINGRYPDREILNLSRFISVMKFRPLKWRNEHPYMLADRFTDLTHPELIETQGLQIDRKVAIYGYLHGTPLPSAPGTRVHIAGVGDFSVAQIEKLPDPCPTPFYQQKLDDFEREKMKEEAKANGEITTASTTRRRKRLDDKDKLIYAPMSDVGGVLMDKDAVYIDIGKKNEEPSFVPGQERGEGEKLMTGLQSVEQSIAEKFDGVGLQLFSNGTELHEVADHEGMDVESGEESIEDDEGKSKGRTSLRKPRIYGKPVQEEDADIDNLPSDEEPYTNDDDVQDSEPRMVEIDFNNTGEQGAEKLALETDSEFEESEDEFSWERTAANKLKKTESKKRTWNIGKLIYMDNISPEECIRRWRGEDDDSKDESDIEEDVDDDFFRKKDGTVTKEGNKDHAVDLEKFVPYFDTFEKLAKKWKSVDAIKERFLGAGILGNDNKTKSDSNEGGEELYGDFEDLEDGNPSEQAEDNSDKESEDEDENEDTNGDDDNSFTNFDAEEKKDLTMEQEREMNAAKKEKLRAQFEIEEGENFKEDDENNEYDTWYELQKAKISKQLEINNIEYQEMTPEQRQRIEGFKAGSYVRIVFEKVPMEFVKNFNPKFPIVMGGLLPTEIKFGIVKARLRRHRWHKKILKTNDPLVLSLGWRRFQTLPIYTTTDSRTRTRMLKYTPEHTYCNAAFYGPLCSPNTPFCGVQIVANSDTGNGFRIAATGIVEEIDVNIEIVKKLKLVGFPYKIFKNTAFIKDMFSSAMEVARFEGAQIKTVSGIRGEIKRALSKPEGHYRAAFEDKILMSDIVILRSWYPVRVKKFYNPVTSLLLKEKTEWKGLRLTGQIRAAMNLETPSNPDSAYHKIERVERHFNGLKVPKAVQKELPFKSQIHQMKPQKKKTYMAKRAVVLGGDEKKARSFIQKVLTISKAKDSKRKEQKASQRKERLKKLAKMEEEKSQRDKEKKKEYFAQNGKRTTMGGDDESRPRKMRR
B3: Rcl1 (protein, UniProt Q08096 1-367)
chain: MSSSAPKYTTFQGSQNFRLRIVLATLSGKPIKIEKIRSGDLNPGLKDYEVSFLRLIESVTNGSVIEISYTGTTVIYRPGIIVGGASTHICPSSKPVGYFVEPMLYLAPFSKKKFSILFKGITASHNDAGIEAIKWGLMPVMEKFGVRECALHTLKRGSPPLGGGEVHLVVDSLIAQPITMHEIDRPIISSITGVAYSTRVSPSLVNRMIDGAKKVLKNLQCEVNITADVWRGENSGKSPGWGITLVAQSKQKGWSYFAEDIGDAGSIPEELGEKVACQLLEEISKSAAVGRNQLPLAIVYMVIGKEDIGRLRINKEQIDERFIILLRDIKKIFNTEVFLKPVDEADNEDMIATIKGIGFTNTSKKIA
B4: Utp8 (protein, UniProt P53276 1-713)
chain: MPSLSQPFRLATLPKIASLSNFSLQADYVQVADGTFNESTNNITLGISGSSISQYIINPTPKLTFDYPIPSTNIITACNAEKGQANIDGNIEASTDDEANNEKTINTQKKRNVEIWAFGLMVNKGNYTLNVITKALEDTTDTSNDHLSESDIDNKAYTGSDEFLSQYKIKAKAKVMSIKIDTKNSLVIAILQNGLIEIFDFKLTLLHSFDISYDNLKYAKWFTENGTEYVFVLCPLQDDKVCYKLLELTDCGSGESSPIKELSSTIIEGFSFENSKLCYQFGKLYKLNQGKIYIYSLPHCQLQQVIEFPMVDKLSPGDDLISFQPVSVNRVLLTVNNVIYLLDLLHCSTLSQRELTHVKTFQLLKSAVINSEKSHNSKTIAIGISTKNGPNPTSSLEIINIDVGTNTLKDSLGKSFQVGNNDSSVILKPLFDDKDINDKRVKCNDVSGDSSVPVLHCNEVIEKLSALQDNDITSFDDIFFKELKIKEEHYTEKDRYISDPGFLNKVLDLIFGKFSGNDYPKTLTFLLTHPLFPLSRTRNLLSLLRDQPRLFKQAIVTCPNLPLNELLEELFSIRNRELLLDISFRILQDFTRDSIKQEMKKLSKLDVQNFIEFITSGGEDSSPECFNPSQSTQLFQLLSLVLDSIGLFSLEGALLENLTLYIDKQVEIAERNTELWNLIDTKGFQHGFASSTFDNGTSQKRALPTYTMEYLDI
B5: Utp13 (protein, UniProt Q05946 1-817)
chain: MDLKTSYKGISLNPIYAGSSAVATVSENGKILATPVLDEINIIDLTPGSRKILHKISNEDEQEITALKLTPDGQYLTYVSQAQLLKIFHLKTGKVVRSMKISSPSYILDADSTSTLLAVGGTDGSIIVVDIENGYITHSFKGHGGTISSLKFYGQLNSKIWLLASGDTNGMVKVWDLVKRKCLHTLQEHTSAVRGLDIIEVPDNDEPSLNLLSGGRDDIINLWDFNMKKKCKLLKTLPVNQQVESCGFLKDGDGKRIIYTAGGDAIFQLIDSESGSVLKRTNKPIEELFIIGVLPILSNSQMFLVLSDQTLQLINVEEDLKNDEDTIQVTSSIAGNHGIIADMRYVGPELNKLALATNSPSLRIIPVPDLSGPEASLPLDVEIYEGHEDLLNSLDATEDGLWIATASKDNTAIVWRYNENSCKFDIYAKYIGHSAAVTAVGLPNIVSKGYPEFLLTASNDLTIKKWIIPKPTASMDVQIIKVSEYTRHAHEKDINALSVSPNDSIFATASYDKTCKIWNLENGELEATLANHKRGLWDVSFCQYDKLLATSSGDKTVKIWSLDTFSVMKTLEGHTNAVQRCSFINKQKQLISCGADGLIKIWDCSSGECLKTLDGHNNRLWALSTMNDGDMIVSADADGVFQFWKDCTEQEIEEEQEKAKLQVEQEQSLQNYMSKGDWTNAFLLAMTLDHPMRLFNVLKRALGESRSRQDTEEGKIEVIFNEELDQAISILNDEQLILLMKRCRDWNTNAKTHTIAQRTIRCILMHHNIAKLSEIPGMVKIVDAIIPYTQRHFTRVDNLVEQSYILDYALVEMDKLF
B6: Rok1 (protein, UniProt P45818 1-564)
chain: MDIFRVLTRGASVKKESGPKAKAADYSVINGNDENHKEDNNESQIVKELDFFRNKRIISKVEDDREKTTENDSPNKEEKSGNDDGLIKPVITNTVEASALRKSYKGNVSGIDIPLPIGSFEDLISRFSFDKRLLNNLIENGFTEPTPIQCECIPVALNNRDVLACGPTGSGKTLAFLIPLVQQIIDDKQTAGLKGLIISPTKELANQIFIECFKLSYKIFLEKKRPLQVALLSKSLGAKLKNKVVSDKKYDIIISTPLRLIDVVKNEALDLSKVKHLIFDEADKLFDKTFVEQSDDILSACREPSLRKAMFSATIPSNVEEIAQSIMMDPVRVIIGHKEAANTNIEQKLIFCGNEEGKLIAIRQLVQEGEFKPPIIIFLESITRAKALYHELMYDRINVDVIHAERTALQRDRIIERFKTGELWCLICTDVLARGIDFKGVNLVINYDVPGSSQAYVHRIGRTGRGGRSGKAITFYTKQDSVAIKPIINVMKQSGCEVSEWMDKMAKMTRKEKESIKNGKAHKERKQITTVPKMDKAKRRRQQEMIAASKRRKNEELSKKHFSK

Molecular target: Utp10-TAP (S. cerevisiae) (UniProt P42945)
Assay: co-IP

binding, binds:
B1
B2
B3
B4
B5
B6
